# Data source: PubChem BioAssay AID504791 (Drosophila RNAi Screening Center, 2011)
# Purpose: 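Factors in Argonaute-based small RNA production and activity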 (primary screen)
# Cell system: Drosophila S2-derived reporter cells
# Knock-down reagent: long dsRNA against Drosophila genes, about 150-250 ng dsRNA per well (siRNA assay); about 80-120 ng (miRNA assay)
# Duration: about 5 days (siRNA assay); about 4 days (miRNA assay)
# Treatment: copper sulfate induction of reporters: 25 µM (siRNA assay); 200 mM stated (miRNA assay), 1-2 days before reading
# Measurement: 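Per-well ratio of Renilla over firefly light, expressed relative to that plate's average ratio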
# Scale: siRNA reporter hit score: higher = 3 marks a strong hit with raised ratio; -3 a strong hit with lowered ratio
# Active means: 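a well was a first-pass pick when its plate-scaled ratio rose above 1.5 (siRNA assay) or 1.6 (miRNA assay), or dropped below 0.6; a gene counted only if two separate dsRNAs agreed on retest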
# In all, the deposit lists about 23,000 reagents; below is a random part of those with a known target gene and a result. Of all reagents, 199 (0.86%) are marked active. 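Plate-scaled ratios behind the calls are not deposited; printed light signals are raw; many rows marked increased or decreased are still called inactive.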 Unmarked entries are inactive. Names joined by + are all predicted targets of the reagent. No sequences are given here.
target gene,dsRNA,siRNA reporter hit score,stable siRNA reporter change,miRNA reporter change,"stable assay Renilla, run 1 (luminescence)","stable assay firefly, run 1 (luminescence)"
CG6015 (GeneID 42593),DRSC15948,,,,9892,5.17e5
Fancl (GeneID 41231),DRSC14550,,,,7855,6.96e5
Pp4-19C (GeneID 45031),DRSC20559,,,reporter ratio lowered past the hit cutoff,5944,5.39e5
Pp4-19C (GeneID 45031),DRSC21251,,,,6706,5.24e5
Pp4-19C (GeneID 45031),DRSC23319,,reporter ratio raised past the hit cutoff,,3544,63013
Pp4-19C (GeneID 45031),DRSC26053,,,reporter ratio lowered past the hit cutoff,,
CG34398 (GeneID 5740462),DRSC01052,,,,5355,5.60e5
CG34398 (GeneID 5740462),DRSC02510,,,,8647,5.50e5
CG34398 (GeneID 5740462),DRSC02511,,,,7640,1.33e6
CG34398 (GeneID 5740462),DRSC03228,,,,8278,5.38e5
CG34398 (GeneID 5740462),DRSC23293,,,,3836,3.68e5
Tom20 (GeneID 40189),DRSC10899,,,,7714,2.92e5
COX6AL (GeneID 246451),DRSC21454,,,,4087,4.51e5
CG12523 (GeneID 39216),DRSC09895,,,,4591,4.27e5
CG3829 (GeneID 38000),DRSC04423,,,,20490,1.42e6
Tsp86D (GeneID 41310),DRSC15607,,,,6727,4.02e5
Ubc84D (GeneID 40900),DRSC12610,,,,6499,3.65e5
CG9010 (GeneID 36904),DRSC07320,,,,9763,3.88e5
dpr6 (GeneID 50296),DRSC09005,,,,3747,3.15e5
dpr6 (GeneID 50296),DRSC10162,,,,6691,4.12e5
dpr6 (GeneID 50296),DRSC10163,,,,6384,5.81e5
CG15414 (GeneID 33570),DRSC00429,,,,9158,5.73e5
CG15414 (GeneID 33570),DRSC22353,,,,9107,6.84e5
Jon66Ci (GeneID 38952),DRSC10772,,,,5974,4.17e5
CG15196 (GeneID 32084),DRSC19643,,,,4907,4.53e5
seq (GeneID 3772396),DRSC06863,,,,4459,2.18e5
pr (GeneID 35292),DRSC03596,,,,1.13e5,1.54e6
Las (GeneID 40259),DRSC11772,,,,8762,3.25e5
CG12316 (GeneID 39650),DRSC09879,,,,7110,2.72e5
Rift (GeneID 43756),DRSC14330,,,,5311,3.25e5
CG31457 (GeneID 326142),DRSC22935,,,,3888,3.32e5
Skp2 + CG1103,DRSC12160,,,,9683,4.38e5
Skp2 + CG1103,DRSC22356,,,,9137,5.55e5
CG8369 (GeneID 50005),DRSC16413,,,,6691,4.97e5
Rnf146 (GeneID 40144),DRSC11045,,,,7402,5.05e5
CG33189 (GeneID 326328),DRSC21427,,,,8923,4.69e5
CG32409 (GeneID 318016),DRSC08780,,,,6295,5.21e5

In a second layout: 4 of the entries above
target gene	dsRNA	siRNA reporter hit score	stable siRNA reporter change	miRNA reporter change	stable assay Renilla, run 1 (luminescence)	stable assay firefly, run 1 (luminescence)
seq (GeneID 3772396)	DRSC06863				4459	2.18e5
pr (GeneID 35292)	DRSC03596				1.13e5	1.54e6
Las (GeneID 40259)	DRSC11772				8762	3.25e5
CG12316 (GeneID 39650)	DRSC09879				7110	2.72e5

The list goes on.
target gene,dsRNA,siRNA reporter hit score,stable siRNA reporter change,miRNA reporter change,"stable assay Renilla, run 1 (luminescence)","stable assay firefly, run 1 (luminescence)"
ATPsynGL (GeneID 34054),DRSC03027,,,,7235,4.05e5
SLO2 (GeneID 5740325),DRSC06212,,reporter ratio raised past the hit cutoff,,4991,1.68e5
SLO2 (GeneID 5740325),DRSC06214,,,,7411,4.68e5
SLO2 (GeneID 5740325),DRSC06216,,,,6896,4.53e5
SLO2 (GeneID 5740325),DRSC06218,,,,6774,3.74e5
SLO2 (GeneID 5740325),DRSC06219,,,,5278,2.10e5
SLO2 (GeneID 5740325),DRSC23225,,,,4071,2.40e5
ste24a (GeneID 36908),DRSC07314,,reporter ratio lowered past the hit cutoff,,5511,3.83e5
ng1 (GeneID 31300),DRSC18802,,,,5136,3.74e5
CG31960 (GeneID 319047),DRSC00281,,,,6046,3.58e5
CG8501 (GeneID 36347),DRSC07198,,,,7590,3.74e5
CG8117 (GeneID 32499),DRSC20082,,,,6939,6.14e5
fy (GeneID 34166),DRSC03533,,,,7384,3.60e5
CG31875 (GeneID 318996),DRSC21975,,,,9205,6.35e5
sosie (GeneID 42961),DRSC14636,,,,5796,3.38e5
sosie (GeneID 42961),DRSC21382,,,,8748,4.95e5
clt (GeneID 117300),DRSC04621,,,,7694,4.69e5
Naus (GeneID 37076),DRSC06011,,,reporter ratio lowered past the hit cutoff,7754,4.26e5
Naus (GeneID 37076),DRSC06469,,,reporter ratio lowered past the hit cutoff,5035,2.99e5
Naus (GeneID 37076),DRSC23606,,,reporter ratio lowered past the hit cutoff (active),,
park (GeneID 40336),DRSC11618,,,,9809,3.57e5
CG7556 (GeneID 32902),DRSC20052,-3,reporter ratio lowered past the hit cutoff,,2308,2.82e5
CG17329 (GeneID 34958),DRSC01926,,,,7562,3.43e5
Fibp (GeneID 40163),DRSC11031,,,,9336,3.83e5
Ced-12 (GeneID 34633),DRSC02840,,,,6858,5.31e5
Ugt35A1 (GeneID 41334),DRSC16892,,,,7890,3.80e5
Cdc50 (GeneID 32615),DRSC20224,,,,4726,5.81e5
CG42557 + CG42558,DRSC13963,,,,6399,4.58e5
CG42557 + CG42558,DRSC16329,,,,8559,3.80e5
Obp44a (GeneID 35789),DRSC06838,,,,5888,3.87e5
CG4712 (GeneID 36469),DRSC06882,,,,5771,3.57e5
CR31032 (GeneID 5740822),DRSC22457,,,,3484,3.66e5
CG17826 (GeneID 39354),DRSC10289,,,,4975,3.03e5
CG34243 (retired record) (GeneID 5740341),DRSC09291,,,,5747,5.75e5
CG34243 (retired record) (GeneID 5740341),DRSC09292,,,,6404,6.28e5
slo (GeneID 42940),DRSC17057,,,,9054,2.89e5
Coq9 (GeneID 246650),DRSC22913,,,,2260,2.67e5
CG15130 (GeneID 35312),DRSC02430,,,,8284,4.86e5
CG34301 (GeneID 5740866),DRSC12704,,,,6558,4.04e5
CG3793 (GeneID 34928),DRSC01982,,,,62822,1.45e6
neo (GeneID 43523),DRSC16316,,,,8490,4.87e5
CG15155 (GeneID 35087),DRSC02456,,,,7435,4.55e5
CG31326 (GeneID 41728),DRSC16532,,,,7338,5.15e5
CG14671 (GeneID 40671),DRSC12257,,,,6351,4.01e5
CG10466 (GeneID 35268),DRSC02060,,,,7451,6.00e5
Cpr49Af (GeneID 36352),DRSC07202,,,,6207,3.17e5
